Measurements reported in PubChem BioAssay AID1259306 (Sanger Institute, 2017).
In all, the deposit lists 794 reagents; below is a random part of them. Of all reagents, 11 (1.4%) were called active. 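Calls reflect knock-down alone; synergy scores play no part, so knock-downs synergising with a drug can be called no change.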 Unmarked entries are inactive. Viability is capped at 1. Not stated in the record: the amount of reagent, the time to read-out.

Assay: 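Kinases needed for viability and knock-downs that synergise with BYL719, cetuximab or trametinib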 (primary screen)
System: human SNU-C5 colorectal cancer cells
Reagents: siRNA pool against human genes
Challenge: DMSO vehicle alone, or one anchor drug: BYL719 at 1 µM, cetuximab at 5 µg/ml or trametinib at 10 nM, given 24 h into the assay
Read-out: 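Replicate-averaged viability against non-targeting pool control, given as fraction and robust z-score; separate synergy scores for BYL719, cetuximab and trametinib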
Direction: robust z-score, knock-down alone and viability, knock-down alone: higher = more viable cells; synergy score with BYL719: higher = stronger synthetic lethality with BYL719; synergy score with cetuximab: higher = stronger synthetic lethality with cetuximab; synergy score with trametinib: higher = stronger synthetic lethality with trametinib
Active means: 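Called essential when the robust z-score for knock-down alone is below -3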
Meaning of the calls: active = essential (knock-down alone); inactive = no change alone

robust z-score, knock-down alone	viability, knock-down alone	synergy score with BYL719	synergy score with cetuximab	synergy score with trametinib	gene
-0.212	0.835	-0.0846	-0.165	-0.181	MAP3K12 (mitogen-activated protein kinase kinase kinase 12)
0.065	0.873	-0.0945	0.0072	-0.204	TPK1 (thiamin pyrophosphokinase 1)
0.804	0.974	0.158	-0.0255	-0.00116	TEK (TEK receptor tyrosine kinase)
0.945	0.994	0.115	-0.00603	-0.0908	CDKL5 (cyclin dependent kinase like 5)
-2.75	0.484	-0.128	-0.0612	-0.238	KSR2 (kinase suppressor of ras 2)
-0.868	0.744	-0.0433	-0.0297	-0.326	ADCK1 (aarF domain containing kinase 1)
-0.499	0.795	-0.102	0.076	-0.267	RIOK1 (RIO kinase 1)
-1.28	0.688	0.00318	0.0551	-0.0507	TWF2 (twinfilin actin binding protein 2)
-1.04	0.72	-0.214	-0.28	-0.223	COQ8B (coenzyme Q8B)
0.989	1	0	0.121	-0.0395	MAP3K20 (mitogen-activated protein kinase kinase kinase 20)
-0.0103	0.862	0.204	0.0662	-0.0865	MAPK6 (mitogen-activated protein kinase 6)
-2.5	0.519	-0.122	-0.0613	-0.0764	MGA (MAX dimerization protein MGA)
0.0588	0.872	0.0379	-0.128	-0.203	MYLK3 (myosin light chain kinase 3)
0.285	0.903	0.0432	0.0662	0.0238	PDGFRA (platelet derived growth factor receptor alpha)
0.989	1	0.0367	0	-0.0413	CDK13 (cyclin dependent kinase 13)
0.989	1	0.263	0.236	0.0218	PAPSS2 (3'-phosphoadenosine 5'-phosphosulfate synthase 2)
-0.0367	0.859	0.204	-0.0236	-0.0205	NUAK1 (NUAK family kinase 1)
0.549	0.939	0.0715	0.0316	-0.0093	NRBP1 (nuclear receptor binding protein 1)
-0.728	0.763	-0.00714	0.0615	0.0625	ACVR2B (activin A receptor type 2B)
-0.686	0.769	0.157	0.168	-0.0136	EPHA10 (EPH receptor A10)
